Measured data: PubChem BioAssay AID1259405 (NCATS, 2018)
The whole screen tested about 50,000 reagents; shown is a part drawn at random. Of all reagents, about 4,000 (8%) were called active. 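Mouse siRNA library applied to hamster cells; one well for each siRNA.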 Unmarked entries are inactive. The numbers tell different reagents against one gene apart. No sequences are given here.

- Assay: 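Silenced genes that increase secreted GFP made by CHO cells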 (primary screen)
- Cell system: Chinese hamster CHO-K1 ovary cells with stable secreted eGFP expression
- Knock-down reagent: single siRNA against mouse genes, 0.8 pmol siRNA per well (2 µl of 400 nM stock)
- Duration: 3 days
- Read-out: 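Per-well intracellular GFP measured by laser scanning cytometry, plus viability from ATP luminescence, each relative to plate median of non-targeting control wells, in %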
- Direction: GFP, % of control: higher = more GFP per well, higher productivity; viability (ATP), % of control: higher = more viable cells (more ATP)
- Rule for the call: 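a knock-down is called active if GFP reaches 120% or more of non-targeting control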

| Gene | reagent | GFP, % of control | viability (ATP), % of control |
| --- | --- | --- | --- |
| Mmrn2 (multimerin 2) | 1 | 30.9 | 25.6 |
| Mmrn2 (multimerin 2) | 2 | 93.6 | 72.3 |
| Mmrn2 (multimerin 2) | 3 | 69.5 | 63.3 |
| Gnpat (glyceronephosphate O-acyltransferase) | 1 | 108 | 94.6 |
| Gnpat (glyceronephosphate O-acyltransferase) | 2 | 41.5 | 68.4 |
| Gnpat (glyceronephosphate O-acyltransferase) | 3 | 99.3 | 97.9 |
| Mrgpra4 (MAS-related GPR, member A4) | 1 | 68.8 | 64.1 |
| Mrgpra4 (MAS-related GPR, member A4) | 2 | 76.3 | 66.9 |
| Mrgpra4 (MAS-related GPR, member A4) | 3 | 77.1 | 62.6 |
| Or4b1c (olfactory receptor family 4 subfamily B member 1C) | 1 | 75.2 | 78.4 |
| Or4b1c (olfactory receptor family 4 subfamily B member 1C) | 2 | 35.8 | 43.8 |
| Or4b1c (olfactory receptor family 4 subfamily B member 1C) | 3 | 62.7 | 93.6 |
| Psme4 (proteasome (prosome, macropain) activator subunit 4) | 1 | 99.4 | 120 |
| Psme4 (proteasome (prosome, macropain) activator subunit 4) | 2 | 60.7 | 72.2 |
| Psme4 (proteasome (prosome, macropain) activator subunit 4) | 3 | 101 | 115 |
| Zfyve27 (zinc finger, FYVE domain containing 27) | 1 | 75.9 | 69.2 |
| Zfyve27 (zinc finger, FYVE domain containing 27) | 2 | 69.7 | 51.9 |
| Zfyve27 (zinc finger, FYVE domain containing 27) | 3 | 79.7 | 96.6 |
| Igfbp2 (insulin-like growth factor binding protein 2) | 1 | 75 | 79.1 |
| Igfbp2 (insulin-like growth factor binding protein 2) | 2 | 66.7 | 37.1 |
| Igfbp2 (insulin-like growth factor binding protein 2) | 3 | 224 (active) | 74.9 |
| Jade3 (jade family PHD finger 3) | 1 | 108 | 121 |
| Jade3 (jade family PHD finger 3) | 2 | 101 | 84 |
| Jade3 (jade family PHD finger 3) | 3 | 76.8 | 106 |
| Vmn1r193 (vomeronasal 1 receptor 193) | 1 | 33.4 | 50.7 |
| Vmn1r193 (vomeronasal 1 receptor 193) | 2 | 89.3 | 63.6 |
| Vmn1r193 (vomeronasal 1 receptor 193) | 3 | 85.4 | 88.4 |
| Tmprss11d (transmembrane protease, serine 11d) | 1 | 67.3 | 89.1 |
| Tmprss11d (transmembrane protease, serine 11d) | 2 | 34.2 | 46.5 |
| Tmprss11d (transmembrane protease, serine 11d) | 3 | 75.7 | 72.7 |
| Pabpc4 (poly(A) binding protein, cytoplasmic 4) | 1 | 79 | 129 |
| Pabpc4 (poly(A) binding protein, cytoplasmic 4) | 2 | 47 | 62.2 |
| Acad12 (acyl-Coenzyme A dehydrogenase family, member 12) | 1 | 48.4 | 40.3 |
| Acad12 (acyl-Coenzyme A dehydrogenase family, member 12) | 2 | 82.2 | 107 |
| Acad12 (acyl-Coenzyme A dehydrogenase family, member 12) | 3 | 51 | 85.7 |
| Krt1 (keratin 1) | 1 | 88.1 | 78.1 |
| Krt1 (keratin 1) | 2 | 52.7 | 60.6 |
| Ammecr1l (AMME chromosomal region gene 1-like) | 1 | 92.1 | 104 |
| Ammecr1l (AMME chromosomal region gene 1-like) | 2 | 91.6 | 89 |
| Ammecr1l (AMME chromosomal region gene 1-like) | 3 | 102 | 71.4 |
| Decr2 (2-4-dienoyl-Coenzyme A reductase 2, peroxisomal) | 1 | 77.4 | 93.9 |
| Decr2 (2-4-dienoyl-Coenzyme A reductase 2, peroxisomal) | 2 | 76.7 | 85.7 |
| Decr2 (2-4-dienoyl-Coenzyme A reductase 2, peroxisomal) | 3 | 83.3 | 68.3 |
| Rabep1 (rabaptin, RAB GTPase binding effector protein 1) | 1 | 102 | 86.6 |
| Rabep1 (rabaptin, RAB GTPase binding effector protein 1) | 2 | 20.2 | 33.9 |
| Rabep1 (rabaptin, RAB GTPase binding effector protein 1) | 3 | 78.3 | 73.9 |
| Nat14 (N-acetyltransferase 14) | 1 | 136 (active) | 90.2 |
| Nat14 (N-acetyltransferase 14) | 2 | 71.5 | 87.7 |
| Rab23 (RAB23, member RAS oncogene family) | 1 | 131 (active) | 98.5 |
| Rab23 (RAB23, member RAS oncogene family) | 2 | 38 | 71.8 |
| Rab23 (RAB23, member RAS oncogene family) | 3 | 15.1 | 16.8 |
| Alkbh7 (alkB homolog 7) | 1 | 87.1 | 99.9 |
| Alkbh7 (alkB homolog 7) | 2 | 105 | 75.2 |
| Alkbh7 (alkB homolog 7) | 3 | 77.1 | 90.1 |
| Tspan11 (tetraspanin 11) | 1 | 85.7 | 68.3 |
| Tspan11 (tetraspanin 11) | 2 | 85.2 | 80.8 |
| Tspan11 (tetraspanin 11) | 3 | 70.8 | 74 |

Not a retest: 7 of the entries above.
| Gene | reagent | GFP, % of control | viability (ATP), % of control |
| --- | --- | --- | --- |
| Jade3 (jade family PHD finger 3) | 3 | 76.8 | 106 |
| Vmn1r193 (vomeronasal 1 receptor 193) | 1 | 33.4 | 50.7 |
| Vmn1r193 (vomeronasal 1 receptor 193) | 2 | 89.3 | 63.6 |
| Vmn1r193 (vomeronasal 1 receptor 193) | 3 | 85.4 | 88.4 |
| Tmprss11d (transmembrane protease, serine 11d) | 1 | 67.3 | 89.1 |
| Tmprss11d (transmembrane protease, serine 11d) | 2 | 34.2 | 46.5 |
| Tmprss11d (transmembrane protease, serine 11d) | 3 | 75.7 | 72.7 |
